From PMC3458939 come the findings set out here.

By UniProt entry, the sequences of proteins in these tests, tags left out. Where a name states a change or a piece, a line headed by the entry shows the natural chain unless it says otherwise.
UniProt O82388: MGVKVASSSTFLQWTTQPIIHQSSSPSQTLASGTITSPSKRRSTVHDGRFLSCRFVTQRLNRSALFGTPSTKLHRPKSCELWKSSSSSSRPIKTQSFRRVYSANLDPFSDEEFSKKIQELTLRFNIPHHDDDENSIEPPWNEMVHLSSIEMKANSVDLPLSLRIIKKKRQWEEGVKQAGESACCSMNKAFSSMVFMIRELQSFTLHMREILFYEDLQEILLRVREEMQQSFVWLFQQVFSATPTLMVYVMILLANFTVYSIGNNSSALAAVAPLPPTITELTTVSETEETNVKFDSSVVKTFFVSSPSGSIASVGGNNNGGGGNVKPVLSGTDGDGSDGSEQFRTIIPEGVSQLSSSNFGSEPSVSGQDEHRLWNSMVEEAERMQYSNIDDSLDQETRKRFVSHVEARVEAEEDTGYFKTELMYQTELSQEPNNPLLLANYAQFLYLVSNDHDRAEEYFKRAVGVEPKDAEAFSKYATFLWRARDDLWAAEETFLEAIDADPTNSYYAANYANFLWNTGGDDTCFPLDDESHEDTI

No constants are given. Whether binding was seen depends on the method and setting. Binding seen in cells or lysates may run through a third protein. A result given as binding can be weak or reduced; the word gives no strength.

This experiment has as its target CPK3-eGFP (Arabidopsis thaliana) (UniProt Q42479). As to the kind of experiment: FRET or BRET; FRET-FLIM in Nicotiana benthamiana epidermal leaf cells; donor CPK3-eGFP, acceptor N-terminal mRFP or C-terminal mCherry fusion; average GFP lifetime in a cytoplasmic sector (nucleus for HMGB5); at least five cells per sample. Background: Bioluminescence resonance energy transfer reports proximity on the nanometre scale.

Take mRFP-AT2G29670 (from UniProt O82388): the binding entry is “binds”.
